The values below come from article PMC9992707.

In the assay the target is T1, RIP1-HA, Q60855.
T1 chain: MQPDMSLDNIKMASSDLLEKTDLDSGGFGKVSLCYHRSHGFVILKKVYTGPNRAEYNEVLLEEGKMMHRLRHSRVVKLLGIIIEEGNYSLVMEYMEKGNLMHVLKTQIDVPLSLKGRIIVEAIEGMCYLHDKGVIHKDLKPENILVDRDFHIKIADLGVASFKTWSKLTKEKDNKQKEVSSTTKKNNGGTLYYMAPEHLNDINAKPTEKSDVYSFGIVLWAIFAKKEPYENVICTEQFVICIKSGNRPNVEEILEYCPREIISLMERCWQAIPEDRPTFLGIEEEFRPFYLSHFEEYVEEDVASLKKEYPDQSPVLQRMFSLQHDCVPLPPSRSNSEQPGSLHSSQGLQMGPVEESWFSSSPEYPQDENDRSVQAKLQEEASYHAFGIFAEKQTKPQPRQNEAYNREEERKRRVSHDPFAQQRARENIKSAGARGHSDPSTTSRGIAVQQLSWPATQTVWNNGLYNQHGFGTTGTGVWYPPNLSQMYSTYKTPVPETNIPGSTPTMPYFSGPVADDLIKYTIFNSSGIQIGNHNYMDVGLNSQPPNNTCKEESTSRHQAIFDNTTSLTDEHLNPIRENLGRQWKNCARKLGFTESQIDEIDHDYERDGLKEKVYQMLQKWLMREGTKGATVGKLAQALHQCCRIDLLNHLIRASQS
As to the kind of experiment: co-IP; lysate of Setdb1 cKO mES cells overexpressing 3×Flag-HA-ZBP1 or RIP1-HA (Setdb1 knockout, 2iL condition); lysis buffer 50 mM Tris-HCl pH 7.4, 1% NP-40, 150 mM NaCl, 1 mM EDTA, 5% glycerol; anti-HA magnetic beads or anti-Flag M2 beads, 3 h at 4 °C; 5 washes. The following applies: remark: other sources report otherwise.

No constants are given. Whether binding was seen depends on the method and setting. In cells and extracts the contact can be indirect. Some entries that bind do so weakly or less than the wild type. Where a sequence is shown, tags or fusion partners need not be part of it.

B1: RIPK3, Q9QZL0 1-486 (protein)
chain: MSSVKLWPTGASAVPLVSREELKKLEFVGKGGFGVVFRAHHRTWNHDVAVKIVNSKKISWEVKAMVNLRNENVLLLLGVTEDLQWDFVSGQALVTRFMENGSLAGLLQPECPRPWPLLCRLLQEVVLGMCYLHSLNPPLLHRDLKPSNILLDPELHAKLADFGLSTFQGGSQSGSGSGSGSRDSGGTLAYLDPELLFDVNLKASKASDVYSFGILVWAVLAGREAELVDKTSLIRETVCDRQSRPPLTELPPGSPETPGLEKLKELMIHCWGSQSENRPSFQDCEPKTNEVYNLVKDKVDAAVSEVKHYLSQHRSSGRNLSAREPSQRGTEMDCPRETMVSKMLDRLHLEEPSGPVPGKCPERQAQDTSVGPATPARTSSDPVAGTPQIPHTLPFRGTTPGPVFTETPGPHPQRNQGDGRHGTPWYPWTPPNPMTGPPALVFNNCSEVQIGNYNSLVAPPRTTASSSAKYDQAQFGRGRGWQPFHK
Take B1: the binding result was “binds”.
